Assay results as given in patent US20230416361A1.
Where a chain is given by its changes, count along the chain named. Numbers in names are those of the source. These are yes or no findings as the source states them, for the method shown. Some entries that bind do so weakly or less than the wild type. Blank lines part the entries; values can stand above or below the binder they belong to.

By UniProt entry, the sequences of proteins in these tests, tags left out. Residues count along the entry.
UniProt Q8TD46, residues 29-265: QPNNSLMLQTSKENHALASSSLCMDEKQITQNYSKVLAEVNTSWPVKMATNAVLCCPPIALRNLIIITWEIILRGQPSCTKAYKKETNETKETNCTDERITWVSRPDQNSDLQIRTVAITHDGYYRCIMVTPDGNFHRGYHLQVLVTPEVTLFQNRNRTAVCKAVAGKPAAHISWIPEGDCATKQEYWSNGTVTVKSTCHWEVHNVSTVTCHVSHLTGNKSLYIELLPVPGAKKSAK

How the values were obtained:
[1] = molecular target: monomeric soluble human CD200R extracellular domain (human) (UniProt Q8TD46); experiment: BLI (Octet), 25 C
[2] = molecular target: T1, cyno CD200R expressed on HEK293T cells (cynomolgus) (UniProt G7NZT0); experiment: flow cytometry on transiently transfected HEK293T cells, antibody at 10 ug/ml
T1 sequence: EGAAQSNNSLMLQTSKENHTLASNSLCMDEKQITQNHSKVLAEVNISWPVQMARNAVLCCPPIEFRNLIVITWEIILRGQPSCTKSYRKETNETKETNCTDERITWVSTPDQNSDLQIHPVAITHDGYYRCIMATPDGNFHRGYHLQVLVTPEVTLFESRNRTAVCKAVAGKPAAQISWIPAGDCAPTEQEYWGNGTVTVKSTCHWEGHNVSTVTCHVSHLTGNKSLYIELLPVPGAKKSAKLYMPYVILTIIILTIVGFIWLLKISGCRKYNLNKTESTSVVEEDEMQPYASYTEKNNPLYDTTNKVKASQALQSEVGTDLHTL

B1: hu2131_v1 (antibody, human IgG1, V domains shown)
VH: QVQLVQSGSELKKPGASVKLSCKASGHTFTSYWMHWVKQAPGQGLEWIGNIYPGSGSINYDEKFQGRATLTVDTSTRTAYMELSSLRSEDSAVYYCLTMTGTSWGRGTLVTVSS
VL: DVQMTQSPSSLSVSVGDRVTMTCQASQGTPINLHWFQQKPGKAPKLLISGASNLEDGVPSRFSGSRYGTAFTLTISSLQDEDIATYFCLQFTYIPWTFGQGTKLEIK
binding [1]: binds

B2: hu2131_v13 (antibody, human IgG1, V domains shown)
VH: B1 VH with S9A, L11V, L20V, K38R, A68V, L70M, R77S, S91T
VL: B1 VL with M21I, A70D, L73F, D80P
binding [1]: binds

B3: hu2131_v3 (antibody, human IgG1, V domains shown)
VH: B1 VH
VL: B1 VL with M21I, A70D, L73F, D80P
binding [1]: binds

B4: hu2131_v17 (antibody, human IgG1, V domains shown)
VH: QVQLVQSGAEVKKPGASVKVSCKASGHTFTSYWMHWVRQAPGQGLEWMGNIYPGSGSINYDEKFQGRVTMTADTSTSTVYMELSSLRSEDTAVYYCLTMTGTSWGRGTLVTVSS
VL: B1 VL with D80P
binding [1]: binds

B5: hu2131_v19 (antibody, human IgG1, V domains shown)
VH: B4 VH
VL: B1 VL with V2I, M21I, R66G, Y67S, A70D, L73F, D80P, F87Y
binding [1]: binds

B6: hu2131_v7 (antibody, human IgG1, V domains shown)
VH: B1 VH with S9A, L11V, S91T
VL: B1 VL with D80P
binding [1]: binds

B7: hu2131_v9 (antibody, human IgG1, V domains shown)
VH: B1 VH with S9A, L11V, S91T
VL: B1 VL with V2I, M21I, R66G, Y67S, A70D, L73F, D80P, F87Y
binding [1]: binds

B8: hu2131_v8 (antibody, human IgG1, V domains shown)
VH: B1 VH with S9A, L11V, S91T
VL: B1 VL with M21I, A70D, L73F, D80P
binding [1]: binds

binding [2]: binds
B9: 2131_chimera (antibody, V domains shown)
VH: QVQLQQPGSELVRPGASVKLSCKASGHTFTSYWMHWVKQRPGQGLEWIGNIYPGSGSINYDEKFKSKAKLTVDTSSRTAYMQLSSLTSEDSAVYYCLTMTGTSWGQGTLVTVSA
VL: B1 VL with T5I, V13A, V15L, R18I, Q79E, I83M, Q100G

B10: hu2131_v12 (antibody, human IgG1, V domains shown)
VH: B4 VH with M48I, A72V, V79A
VL: B1 VL with D80P
binding [1]: binds

B11: hu2131_v18 (antibody, human IgG1, V domains shown)
VH: B4 VH
VL: B1 VL with M21I, A70D, L73F, D80P
binding [1]: binds

B12: hu2131_v15 (antibody, human IgG1, V domains shown)
VH: B4 VH with M48I, A72V, V79A
VL: B1 VL with V2I, M21I, R66G, Y67S, A70E, L73F, D80P, I83A, F87Y
binding [1]: binds

B13: hu2131_v10 (antibody, human IgG1, V domains shown)
VH: B1 VH with S9A, L11V, S91T
VL: B1 VL with V2I, M21I, R66G, Y67S, A70E, L73F, D80P, I83A, F87Y
binding [1]: binds

B14: hu2131_v5 (antibody, human IgG1, V domains shown)
VH: B1 VH
VL: B1 VL with V2I, M21I, R66G, Y67S, A70E, L73F, D80P, I83A, F87Y
binding [1]: binds

binding [2]: binds
B15: hu2131_v20 (antibody, human IgG1, V domains shown)
VH: B4 VH
VL: B1 VL with V2I, M21I, R66G, Y67S, A70E, L73F, D80P, I83A, F87Y
binding [1]: binds

B16: hu2131_v16 (antibody, human IgG1, V domains shown)
VH: B4 VH
VL: B1 VL
binding [1]: binds

B17: hu2131_v2 (antibody, human IgG1, V domains shown)
VH: B1 VH
VL: B1 VL with D80P
binding [1]: binds

B18: hu2131_v11 (antibody, human IgG1, V domains shown)
VH: B4 VH with M48I, A72V, V79A
VL: B1 VL
binding [1]: binds

B19: hu2131_v6 (antibody, human IgG1, V domains shown)
VH: B1 VH with S9A, L11V, S91T
VL: B1 VL
binding [1]: binds

B20: hu2131_v4 (antibody, human IgG1, V domains shown)
VH: B1 VH
VL: B1 VL with V2I, M21I, R66G, Y67S, A70D, L73F, D80P, F87Y
binding [1]: binds

B21: hu2131_v14 (antibody, human IgG1, V domains shown)
VH: B4 VH with M48I, A72V, V79A
VL: B1 VL with V2I, M21I, R66G, Y67S, A70D, L73F, D80P, F87Y
binding [1]: binds

binding [2]: binds
B22: hu2131_Q1E_M99G hIgG1k P238D (antibody, V domains shown)
VH: B4 VH with Q1E, M99G
VL: DIQMTQSPSSLSVSVGDRVTITCQASQGTPINLHWFQQKPGKAPKLLISGASNLESGVPSRFSGSGSGTEFTFTISSLQPEDAATYYCLQFTYIPWTFGQGTKLEIKR

binding [2]: binds
B23: anti-CD200R antibody clone 21.3.1 (mIgG1k isotype) (antibody, V domains shown)
VH: B9 VH
VL: DVQMIQSPSSLSASLGDIVTMTCQASQGTPINLHWFQQKPGKAPKLLISGASNLEDGVPSRFSGSRYGTAFTLTISSLEDEDMATYFCLQFTYIPWTFGGGTKLEIKR
